61 molecules from PubChem BioAssay AID2685 (National Center for Advancing Translational Sciences (NCATS), 2010) can be followed below.

This experiment is described as follows: qHTS Assay for Lipid Storage Modulators in Drosophila S3 Cells.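 For cell number change: cells counted by Cell Tracker Red CMTPX staining in the red channel.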 The settings on record: BODIPY lipid droplet fluorescence, 18-24 h; for cell number change: measured here: cell count max response, cells fed with added oleic acid. In short, it runs like this:
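Laser-scanning cytometry quantifies lipid droplet accumulation (500–530 nm total intensity; droplet/cell object ratio) in oleic acid-fed (400 uM added) Drosophila S3 cells treated with a concentration series. 20 uM Triacsin C defined 100% inhibition.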

The mark [1] stands for this setting: measured here: lipid fluorescence (Fed channel) AC50, cells fed with added oleic acid.
Setting [2] is: measured here: cell number channel AC50, cells fed with added oleic acid.

Molecules are shown by their SMILES. This is one part of the list. These are further read-outs of the screen, such as a control signal, another cell line or another target. No call is given for them. Compounds called inactive in the main read-out are mostly missing here. Potencies come from curve fits of mixed quality, noted in brackets.

For `COc1ccc(C2C(C(N)=O)=C(C)Nc3nc(CCCO)nn32)cc1` (stereo unspecified), the cell number change is -11.1%. Take `Cc1nn(CC2CC2)c(=O)n1-c1cccc(Cl)c1`: the cell number change was found to be 8.66%. Moreover, the AC50 under setting [1] is 0.731 µM [rising, single point]. Take `O=S(=O)(NCCc1ccccc1)c1ccc(Cl)nc1`: the cell number change was 33.3%. Also, the half-maximal activity concentration (AC50) under setting [2] is 20.6 µM [rising, single point]. For `CC(Sc1nnc(C2CC2)n1C1CC1)C(=O)c1ccc(Br)cc1` (stereo unspecified), the cell number change was -36.3%. Further, the concentration at half-maximal activity (AC50) under setting [2] was 14.6 µM [falling, partial curve]. The AC50 under setting [1] was 2.31 µM [falling, partial curve, poor fit]. Take `O=C(NCc1n[nH]c(=S)n1-c1cccc(Cl)c1)c1ccc(S(=O)(=O)N2CCCC2)cc1`: the cell number change is -37.7%. Besides, the AC50 under setting [2] was 0.164 µM [falling, full curve, poor fit]. Further, under setting [1], the AC50 was 3.66 µM [rising, single point].

Consider `COc1ccc(CNC(=O)C2CCCN2S(=O)(=O)c2ccc(F)cc2)cc1` (stereo unspecified), for which the cell number change was -40%. Further, the AC50 under setting [2] was 29.1 µM [falling, single point]. Also, the AC50 under setting [1] was 29.1 µM [falling, single point]. On to `NC(=O)c1nsnc1-c1ccccc1O`, for which the cell number change was -62.8%. Under setting [2], the AC50 is 3.26 µM [falling, full curve]. For the molecule `COc1ccc(Br)cc1CN(C)C(=O)CNC(=O)c1ccc2ccccc2c1`, the cell number change is -21%. For the same molecule, the AC50 under setting [1] was 6.51 µM [falling, partial curve]. With `Cc1ccc(Nc2ccc([N+](=O)[O-])nc2[N+](=O)[O-])cc1`, the cell number change was 24.4%. Further, the AC50 under setting [2] is 0.92 µM [falling, full curve]. Also, the AC50 under setting [1] was 18.4 µM [falling, partial curve, poor fit].

On to `CCOC(=O)C1=C(c2ccccc2)OC(N)=C(C#N)C1c1ccc(Br)s1` (stereo unspecified), for which the cell number change was -11.9%. Further, under setting [1], the AC50 was 29.1 µM [falling, single point]. Regarding `Cc1nc(N2CCN(Cc3ccc4c(c3)OCO4)CC2)nc2c1C(=O)CC(c1ccco1)C2` (stereo unspecified), the cell number change is -13.5%. In addition, under setting [1], the AC50 was 0.116 µM [rising, single point]. For `Cc1ccccc1-c1nc2cc(NC(=O)C3CC3)ccc2o1`, the AC50 under setting [2] is 0.92 µM [falling, full curve]. Take `COc1ccc(N2CCN(CC(=O)c3ccc(O)cc3O)CC2)cc1`: the cell number change came to 34.3%. The AC50 under setting [2] was 16.4 µM [rising, partial curve]. On to `O=C(O)CNS(=O)(=O)c1ccc2c3c(cccc13)C(=O)N2`, for which the cell number change came to 8.99%. Further, under setting [1], the AC50 is 29.1 µM [rising, single point]. Take `CC(=O)Nc1cccc(NC(=O)c2ccc(C)c([N+](=O)[O-])c2)c1`: the cell number change is -16%. The AC50 under setting [2] was 0.651 µM [falling, single point].

As for `O=C(Nc1ccccn1)C1CCN(S(=O)(=O)c2cccc3nonc23)CC1`, the cell number change turned out to be 30.1%. Also, the AC50 under setting [2] was 1.64 µM [rising, single point]. In the case of `COc1ccc(N2CCOCC2)c(NC(=O)COc2cccc(C)c2)c1`, the cell number change turned out to be 20.4%. For the same molecule, under setting [1], the AC50 is 6.51 µM [falling, single point]. With `CCOC(=O)CN(C(=O)CSc1nnc(-c2ccncc2)n1CCCN(C)C)c1ccccc1`, the cell number change was -34.6%. Also, the AC50 under setting [2] was 0.184 µM [falling, full curve]. For the same molecule, the AC50 under setting [1] was 0.146 µM [falling, full curve]. As for `O=C(CC1Sc2ncnn2C1=O)Nc1ccc(Cl)cc1` (stereo unspecified), the AC50 under setting [2] is 3.26 µM [rising, single point]. With `O=C(c1cccc(Cl)c1)N1CCCC(C(=O)N2CCN(c3ccccc3)CC2)C1` (stereo unspecified), the cell number change was -18.8%. Moreover, the AC50 under setting [2] was 0.366 µM [rising, single point]. Besides, the AC50 under setting [1] is 6.51 µM [rising, single point].

For `COc1ccccc1CNC(=O)c1ccccc1OCc1ccc(F)cc1`, the cell number change is 12.3%. Also, the AC50 under setting [1] was 18.4 µM [rising, partial curve, poor fit]. Turning to `CCN1C(=O)c2cccc3c(S(=O)(=O)Nc4ccccc4O)ccc1c23`, the cell number change was -20.5%. The AC50 under setting [2] was 0.0058 µM [rising, full curve, poor fit]. In the case of `CCc1cc(C(=O)NNC(=S)Nc2ccccc2C)cs1`, the cell number change is -38.5%. The AC50 under setting [2] is 0.103 µM [falling, full curve, poor fit]. On to `COc1ccccc1C(=O)Nc1ccc(NC(=O)C2CCCCC2)nc1`, for which the cell number change stood at 4.27%.

Turning to `Cc1c(-c2ccccc2)oc2c(C(=O)OCC(=O)Nc3cccc(F)c3)cccc2c1=O`, the cell number change was determined as 3.41%. The AC50 under setting [1] was 25.9 µM [rising, single point].

On to `COc1ccccc1OCC(=O)Nc1ccc(S(=O)(=O)NC(C)=O)cc1`, for which the cell number change is 3.44%. Regarding `Cc1ccc(CNC(=O)CS(=O)(=O)Cc2nc(-c3ccccc3F)oc2C)cc1`, the cell number change is -6.63%.

As to `COCCNC(=O)C(c1ccc(C)cc1)N(C(=O)CCC(=O)Nc1ccccn1)c1ccccc1C` (stereo unspecified), the cell number change is -12.1%.

Regarding `CCC(C)[C@H](NC(=O)NCCCOC(C)C)C(=O)OC` (stereo partly specified), the cell number change is 4%. Under setting [2], the AC50 is 6.51 µM [falling, single point]. As for `CC(C)(C)c1ccc(OCC(=O)OCCNC(=O)c2cccnc2)cc1`, the cell number change was -14.7%. Moreover, under setting [2], the AC50 is 4.61 µM [falling, single point]. With `O=C1CC(C(=O)O)(c2ccccc2)c2cccc(F)c21` (stereo unspecified), the cell number change amounted to 41.1%. In addition, under setting [2], the AC50 was 29.1 µM [rising, single point]. Besides, the AC50 under setting [1] was 29.1 µM [rising, single point]. Consider `Cc1ccc(C(=O)N[C@H](C(=O)OCC(=O)c2ccc[nH]2)C(C)C)cc1`, for which, under setting [1], the AC50 is 2.31 µM [rising, partial curve, poor fit].

On to `COCCN(C(=O)c1ccc(-c2ccc([N+](=O)[O-])cc2)o1)c1c(N)n(CC(C)C)c(=O)[nH]c1=O`, for which the AC50 under setting [1] is 0.00461 µM [rising, full curve, poor fit]. Consider `COCc1cccc(NC(=O)CCc2ccccc2)c1`, for which the cell number change worked out at 2.94%. With `CN(C(=O)CSc1nc2cc(C(=O)O)ccc2c(=O)n1Cc1ccccc1)C1CCS(=O)(=O)C1` (stereo unspecified), the cell number change is -76.6%. In addition, under setting [2], the AC50 was 29.1 µM [falling, single point]. Take `O=C(c1cccc(S(=O)(=O)N2CCCCC2)c1)N1CCN(S(=O)(=O)c2ccc(F)cc2)CC1`: the cell number change is -0.583%. Besides, under setting [1], the AC50 was 25.9 µM [falling, single point].

Turning to `O=S(=O)(c1ccccc1)N1CCN=C1SCc1cccc(Cl)c1`, the cell number change turned out to be 33%. The AC50 under setting [2] was 14.6 µM [rising, single point]. With `COc1ccc(C(=O)OCCN2C(=O)c3ccccc3C2=O)cc1`, the cell number change was -2.4%. Turning to `Cc1ccc(C(C(=O)NC(C)(C)C)N(Cc2ccccc2)C(=O)c2snc(C(N)=O)c2N)o1` (stereo unspecified), the cell number change was -53.6%. The AC50 under setting [2] is 29.1 µM [falling, single point].

In the case of `CC(NC(=O)C(C)N1CCN(S(=O)(=O)c2ccccc2)CC1)c1ccccc1` (stereo unspecified), the cell number change was 25.7%. For the same molecule, the AC50 under setting [2] is 1.64 µM [rising, full curve, poor fit]. In addition, the AC50 under setting [1] was 2.06 µM [rising, full curve].

With `COc1cc(CNCCO)cc(Br)c1OCc1cccs1`, the cell number change is -10.6%. Besides, the AC50 under setting [1] was 6.51 µM [rising, single point].

Regarding `NC(=O)CNC(=O)[C@@H]1CC2(CC(c3ccc(Cl)cc3)=NO2)CN1C(=O)c1ccc(Br)cc1` (stereo partly specified), the cell number change is -11.8%. Under setting [1], the AC50 was 25.9 µM [falling, single point]. In the case of `O=C(Cc1cccs1)N1CCN=C1SCc1ccccc1F`, the cell number change is 46.5%. In addition, under setting [2], the AC50 was 11.6 µM [rising, partial curve, poor fit]. For the same molecule, the AC50 under setting [1] was 14.6 µM [rising, partial curve]. Take `O=c1c2ccccc2cnn1Cc1n[nH]c(=S)n1-c1ccccc1F`: the cell number change worked out at 13%.

As to `CCCCCCCCCCCCCCCC[n+]1ccc(C(N)=O)cc1`, the cell number change was -10%. Besides, under setting [1], the AC50 was 32.6 µM [falling, single point]. Regarding `COC(=O)N1CCN(CCc2ccccc2)CC1`, the cell number change was -23.1%. The AC50 under setting [2] was 4.61 µM [falling, full curve, poor fit]. As for `Cc1cc(C)cc(-c2nnc(SCC(=O)N3CCN(C(=O)c4ccco4)CC3)o2)c1`, the cell number change is 4.24%. The AC50 under setting [1] was 4.11 µM [rising, single point]. With `CC1(C)NC(=O)N(CC(O)CN(c2ccccc2)S(=O)(=O)c2ccccc2)C1=O` (stereo unspecified), the cell number change was -4.17%. Moreover, under setting [1], the AC50 was 0.00651 µM [falling, full curve, poor fit]. With `Cc1ccc(Nc2nc(N)c([N+](=O)[O-])c(NCc3ccco3)n2)cc1C`, the cell number change was -23.3%. For the same molecule, under setting [1], the AC50 was 20.6 µM [falling, single point].

On to `O=C(c1cccc(F)c1)N1CCC(N2CCCCCC2)CC1`, for which the cell number change is -46.8%. Also, the AC50 under setting [2] is 2.59 µM [falling, full curve]. In addition, the AC50 under setting [1] was 5.8 µM [falling, full curve]. On to `O=[N+]([O-])c1ccc(S(=O)(=O)Nc2nnc(C3CCCCC3)s2)cc1`, for which the cell number change was -3.48%. Still for that read-out and setting: next, `Cc1cc(OC(C)C(=O)NCCCn2ccnc2)c2c(C)cc(=O)oc2c1` (stereo unspecified): 5.65%.

Take `CCOC(=O)c1cc(NC(=O)Nc2ccc(OC)c(OC)c2)c(C)nc1C`: the cell number change was 17.6%. The AC50 under setting [1] is 0.00461 µM [rising, full curve, poor fit]. In the case of `CN(CCc1ccccc1)C1CCCN(S(=O)(=O)c2cccc(F)c2)C1` (stereo unspecified), the cell number change stood at 15.8%. The AC50 under setting [1] is 6.51 µM [rising, single point]. As for `CCOc1ccc2nc(NC(=O)CSc3nc4c(c(=O)n(C)c(=O)n4C)n3C(C)C)sc2c1`, the cell number change turned out to be 0.284%. Besides, the AC50 under setting [2] was 0.231 µM [rising, full curve, poor fit]. Take `CCOc1ccccc1N1CC(C(=O)N(Cc2nnc(-c3ccccc3Cl)o2)C2CC2)CC1=O` (stereo unspecified): the cell number change was -10.2%. In the case of `CC1(C)Cc2c(C#N)c(N3CCN(C(=O)c4ccccc4Cl)CC3)nc(-c3ccco3)c2CS1`, the cell number change is -46.3%. For the same molecule, the AC50 under setting [2] was 8.2 µM [falling, partial curve, poor fit]. As to `Cc1ccc(C(=O)Nc2cnc3ccccc3c2)cc1`, the cell number change amounted to 65.9%. Also, under setting [2], the AC50 was 0.58 µM [rising, full curve]. `Cc1cccc(C(=O)NNC2=CC(=O)CC(C)(C)C2)c1O`: the cell number change amounted to 7.79%. Also, under setting [1], the AC50 was 23.1 µM [rising, single point].

Turning to `CC(=O)c1ccccc1NC(=O)CN1C(=O)CS/C1=C\c1nc(-c2ccc(C)cc2)cs1`, the cell number change is 10.2%. For `COc1ccc(NC(=O)c2cccnc2)c(OC)c1`, the cell number change is -1.08%. Moreover, the AC50 under setting [1] is 0.13 µM [rising, full curve, poor fit].

The AC50 is the midpoint of the concentration-response curve, whichever way the signal moves. A lower AC50 goes with greater potency.
